The match of structure and compound is tentative.

Amino acid sequences for entries named in this document (tags omitted).
UniProt Q86WV6, whole entry R71H/G230A/H232R/R293Q: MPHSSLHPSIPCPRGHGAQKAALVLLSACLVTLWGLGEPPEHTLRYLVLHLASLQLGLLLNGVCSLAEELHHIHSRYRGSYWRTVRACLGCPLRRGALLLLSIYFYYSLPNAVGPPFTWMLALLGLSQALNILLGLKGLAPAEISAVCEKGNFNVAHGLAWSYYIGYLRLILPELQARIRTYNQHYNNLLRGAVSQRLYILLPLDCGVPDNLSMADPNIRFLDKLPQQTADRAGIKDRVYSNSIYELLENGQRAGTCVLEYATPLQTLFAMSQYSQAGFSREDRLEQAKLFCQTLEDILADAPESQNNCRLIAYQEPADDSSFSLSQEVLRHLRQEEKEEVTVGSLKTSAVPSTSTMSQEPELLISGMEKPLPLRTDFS

This assay concerns the target STING (Homo sapiens, UniProt Q86WV6, G230A/H232R/R293Q/R71H). The assay can be described thus: STING reporter assay (luciferase) in THP1-Dual KO-IFNAR2 cells stimulated with 2′3′cGAMP. The note with it: read-out: Pharmaron, THP1_IFNAR2 STING 24 h Luci Normalized: GeoMean EC50, 2′3′cGAMP 15 μM final, luciferase reporter activity. How it is done:
STING pathway activation by the compounds described herein was measured using TTIP1-Dual™ cells (KO-IFNAR2).
TTIP1-Dual™ KO-IFNAR2 Cells (obtained from invivogen) were maintained in RPMI, 10% FCS, 5 ml P/S, 2 mM L-glut, 10 mM Hepes, and 1 mM sodium pyruvate. Compounds were spotted in empty 384 well tissue culture plates (Greiner 781182) by Echo for a final concentration of 0.0017-100 μM. Cells were plated into the TC plates at 40 μL per well, 2×10E6 cells/mL. For activation with STING ligand, 2′3′cGAMP (MW 718.38, obtained from Invivogen), was prepared in Optimem media.
The following solutions were prepared for each 1×384 plate: • Solution A: 2 mL Optimem with one of the following stimuli: • […] • Solution B: 2 mL Optimem with […] Lipofectamine 2000→Incubate 5 min at RT
2 mL of solution A and 2 ml Solution B was mixed and incubated for 20 min at room temperature (RT). […] Luciferase reporter activity was then measured. EC50 values were calculated by using standard methods known in the art.
Luciferase reporter assay: 10 μL of supernatant from the assay was transferred to white 384-plate with flat bottom and squared wells. […] Luminescence was measured on a Platereader (e.g., Spectramax I3X (Molecular Devices GF3637001)).
Luciferase reporter activity was then measured. EC50 values were calculated by using standard methods known in the art.

For the compound `O=C(Nc1c[nH]c2ccc(OCCc3ccc(C(F)(F)F)cc3)cc12)C1C2COCC21` (stereo not shown), the concentration for a half-maximal effect (EC50) (as a rule, the concentration needed to bring the measured effect to its halfway point) is 40 to 200 nM.

Source of the values: patent US20230250060A1 (IFM Due, Inc., priority 2022, published 2023).
